# From article PMC12113829
# These are yes or no findings as the source states them, for the method shown. For some of these results: Binding can be weak; no strength is given. Where a sequence is shown, tags or fusion partners need not be part of it.
# Legend:
# Assay in all cases: two-hybrid; small-scale, co-transformation of one bait (BD fusion of HLP_PM19 deletion mutants) and one prey (AD-AtToc33); growth and blue colour on DDO with aureobasidin A and X-alpha-Gal (DDOXA)
# [1] = target: HLP_(PM19-N) fused to the Gal4 binding domain ('Candidatus Phytoplasma mali' strain PM19)
# [2] = target: HLP_(PM19-C) fused to the Gal4 binding domain ('Candidatus Phytoplasma mali' strain PM19)
# [3] = target: HLP_(PM19-ΔTM) fused to the Gal4 binding domain ('Candidatus Phytoplasma mali' strain PM19)
# [4] = target: HLP_(PM19-DUF21-C) fused to the Gal4 binding domain ('Candidatus Phytoplasma mali' strain PM19)
binder,measurement,setting,value
"A. thaliana translocase of chloroplast 33 fused to the Gal4 activation domain (protein, UniProt O23680 1-297) MGSLVREWVGFQQFPAATQEKLIEFFGKLKQKDMNSMTVLVLGKGGVGKSSTVNSLIGEQVVRVSPFQAEGLRPVMVSRTMGGFTINIIDTPGLVEAGYVNHQALELIKGFLVNRTIDVLLYVDRLDVYRVDELDKQVVIAITQTFGKEIWCKTLLVLTHAQFSPPDELSYETFSSKRSDSLLKTIRAGSKMRKQEFEDSAIAVVYAENSGRCSKNDKDEKALPNGEAWIPNLVKAITDVATNQRKAIHVDKKMVDGSYSDDKGKKLIPLIIGAQYLIVKMIQGAIRNDIKTSGKPL",binding,[1],binds
same,binding,[2],no binding
same,binding,[3],binds
same,binding,[4],binds
